From article doi:10.1101/2024.06.28.601153
No constants are given. Whether binding was seen depends on the method and setting. Binding seen in cells or lysates may run through a third protein. Some binding calls cover weakened binding; strength is not graded here.

Sequences of proteins named here, by UniProt entry; tags and fusion partners are left off.
UniProt Q05397: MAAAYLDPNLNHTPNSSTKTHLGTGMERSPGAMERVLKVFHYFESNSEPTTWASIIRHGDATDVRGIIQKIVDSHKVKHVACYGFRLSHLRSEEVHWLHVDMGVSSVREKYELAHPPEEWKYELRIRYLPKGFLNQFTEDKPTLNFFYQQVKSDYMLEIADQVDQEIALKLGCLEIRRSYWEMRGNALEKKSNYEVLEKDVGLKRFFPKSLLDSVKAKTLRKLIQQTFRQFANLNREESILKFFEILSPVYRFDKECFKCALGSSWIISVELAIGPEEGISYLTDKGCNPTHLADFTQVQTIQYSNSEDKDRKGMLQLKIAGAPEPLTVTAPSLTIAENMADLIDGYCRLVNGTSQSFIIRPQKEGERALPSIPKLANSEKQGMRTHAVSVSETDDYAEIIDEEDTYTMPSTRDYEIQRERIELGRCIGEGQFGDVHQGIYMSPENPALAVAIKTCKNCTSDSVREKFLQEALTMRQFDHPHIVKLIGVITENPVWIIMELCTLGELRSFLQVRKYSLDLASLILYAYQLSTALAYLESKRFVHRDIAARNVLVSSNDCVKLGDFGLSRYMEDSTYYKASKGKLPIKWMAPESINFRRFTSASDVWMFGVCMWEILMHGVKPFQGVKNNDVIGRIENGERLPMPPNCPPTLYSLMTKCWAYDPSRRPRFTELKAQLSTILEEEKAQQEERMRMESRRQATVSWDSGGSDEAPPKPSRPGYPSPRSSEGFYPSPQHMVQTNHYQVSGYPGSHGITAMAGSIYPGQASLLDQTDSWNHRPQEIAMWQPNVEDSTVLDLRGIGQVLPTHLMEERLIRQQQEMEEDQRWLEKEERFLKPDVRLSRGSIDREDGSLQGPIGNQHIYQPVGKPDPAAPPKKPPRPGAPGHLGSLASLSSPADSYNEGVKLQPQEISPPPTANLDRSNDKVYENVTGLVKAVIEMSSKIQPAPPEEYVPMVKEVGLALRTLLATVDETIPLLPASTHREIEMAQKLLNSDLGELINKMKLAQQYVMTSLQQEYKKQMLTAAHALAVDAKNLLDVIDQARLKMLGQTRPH
UniProt O60658: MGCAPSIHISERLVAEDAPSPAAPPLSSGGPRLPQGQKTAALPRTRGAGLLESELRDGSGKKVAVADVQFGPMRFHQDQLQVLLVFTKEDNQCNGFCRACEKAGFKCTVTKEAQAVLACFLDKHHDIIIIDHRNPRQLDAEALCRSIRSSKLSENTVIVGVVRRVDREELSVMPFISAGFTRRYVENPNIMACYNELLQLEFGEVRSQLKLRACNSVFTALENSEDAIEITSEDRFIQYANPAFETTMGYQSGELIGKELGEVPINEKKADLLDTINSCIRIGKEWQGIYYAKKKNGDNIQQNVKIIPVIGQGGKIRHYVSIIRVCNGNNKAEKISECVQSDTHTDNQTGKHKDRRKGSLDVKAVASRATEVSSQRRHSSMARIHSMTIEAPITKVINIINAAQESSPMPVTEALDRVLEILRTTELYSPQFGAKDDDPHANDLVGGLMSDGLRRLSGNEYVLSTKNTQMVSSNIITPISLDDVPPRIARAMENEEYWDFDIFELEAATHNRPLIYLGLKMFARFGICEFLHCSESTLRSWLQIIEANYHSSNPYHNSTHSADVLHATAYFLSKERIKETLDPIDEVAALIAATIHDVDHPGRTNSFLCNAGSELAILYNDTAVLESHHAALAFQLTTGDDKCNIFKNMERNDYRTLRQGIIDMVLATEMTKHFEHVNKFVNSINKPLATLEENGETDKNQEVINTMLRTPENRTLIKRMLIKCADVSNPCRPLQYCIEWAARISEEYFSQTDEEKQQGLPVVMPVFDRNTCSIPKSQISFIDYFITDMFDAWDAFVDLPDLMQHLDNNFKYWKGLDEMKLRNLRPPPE

Experiments:
[1] = target: Focal Adhesion Kinase (FLAG/hFAK) (human) (UniProt Q05397); assay: co-IP
[2] = target: phosphodiesterase 8A (V5/hPDE8A) (human) (UniProt O60658); assay: co-IP

Substance	binding [1]	binding [2]
phosphodiesterase 8A (V5/hPDE8A) (from UniProt O60658 1-829) (enzyme)	binds	–
Focal Adhesion Kinase (FLAG/hFAK) (from UniProt Q05397 1-1052) (enzyme)	–	binds
